Data: PubChem BioAssay (EPA / NIEHS)
The inconclusive results got no clear call from the source; some entries with a clear call stand among them for comparison. Potencies of inconclusive entries are doubtful fits and often do not repeat. The source made the active and inactive calls. The calls were made as follows: active = hit-call score of the fitted dose curve at least 0.9, where 1 is the maximum; inconclusive = response in the unintended direction; inactive = score below 0.9.

Chains of the proteins cited; added tags and fusions are not shown. Lines headed by an entry give the natural chain unless they say otherwise; changes in a name come on top.
UniProt P22199: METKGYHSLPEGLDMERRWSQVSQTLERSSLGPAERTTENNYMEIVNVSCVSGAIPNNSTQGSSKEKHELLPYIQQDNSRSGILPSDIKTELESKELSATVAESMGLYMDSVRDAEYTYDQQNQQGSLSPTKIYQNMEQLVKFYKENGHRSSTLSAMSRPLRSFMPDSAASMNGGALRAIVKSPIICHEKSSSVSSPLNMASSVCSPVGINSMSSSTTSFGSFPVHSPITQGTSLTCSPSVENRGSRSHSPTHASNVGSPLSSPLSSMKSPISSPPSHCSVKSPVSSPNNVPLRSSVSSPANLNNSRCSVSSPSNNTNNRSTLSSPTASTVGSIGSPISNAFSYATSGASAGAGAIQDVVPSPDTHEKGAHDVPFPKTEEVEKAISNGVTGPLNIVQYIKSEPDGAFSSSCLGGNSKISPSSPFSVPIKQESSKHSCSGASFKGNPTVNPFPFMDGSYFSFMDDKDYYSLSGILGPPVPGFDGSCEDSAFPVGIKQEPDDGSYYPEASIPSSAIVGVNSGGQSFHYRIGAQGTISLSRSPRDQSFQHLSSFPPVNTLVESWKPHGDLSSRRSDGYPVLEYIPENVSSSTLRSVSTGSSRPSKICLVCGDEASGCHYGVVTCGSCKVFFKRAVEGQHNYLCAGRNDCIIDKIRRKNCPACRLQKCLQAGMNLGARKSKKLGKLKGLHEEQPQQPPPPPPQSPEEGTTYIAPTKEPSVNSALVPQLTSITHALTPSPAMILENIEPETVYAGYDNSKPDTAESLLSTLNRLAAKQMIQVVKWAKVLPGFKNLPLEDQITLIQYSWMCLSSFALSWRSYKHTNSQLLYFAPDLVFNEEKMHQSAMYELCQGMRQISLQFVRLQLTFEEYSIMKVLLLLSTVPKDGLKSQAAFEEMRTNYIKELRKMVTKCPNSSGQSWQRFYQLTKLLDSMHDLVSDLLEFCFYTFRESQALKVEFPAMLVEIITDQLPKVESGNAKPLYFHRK

target: rat Mineralocorticoid Receptor (MR), Nr3c2 (gene 25672) (UniProt P22199); assay: NVS_NR_rMR: NovaScreen (NVS) Nuclear Receptor Binding Assay for rat Mineralocorticoid Receptor (MR) (AID 2283355)
Procedure: NVS_NR_rMR is a biochemical, single-readout assay that uses extracted gene-proteins from Adrenalectomized rat brain supernatant in a tissue-based cell-free assay. Measurements were taken 24 hours after chemical dosing in a 96-well plate.NVS_NR_rMR is one of one assay component(s) measured or calculated from the NVS_NR_rMR assay. It is designed to make measurements of radioligand binding, a form of binding reporter, as detected with scintillation counting signals by Lysate-based radiodetection technology.Data from the assay component NVS_NR_rMR was analyzed into 1 assay endpoint. This assay endpoint, NVS_NR_rMR, was analyzed in the positive analysis fitting direction relative to DMSO as the negative control and baseline of activity. Using a type of binding reporter, loss-of-signal activity can be used to understand changes in the binding as they relate to the gene Nr3c2. Furthermore, this assay endpoint can be referred to as a primary readout, because the performed assay has only produced 1 assay endpoint. To generalize the intended target to other relatable targets, this assay endpoint is annotated to the nuclear receptor intended target family, where the subfamily is steroidal.
Binding assays used specific radioligands (tritiated, iodinated) with non-radioactive competitive displacement ligands in agonist or antagonist protocols (as indicated) and various reference compounds and inhibitors to titrate specific binding to receptors and transporters. Most enzyme assays (CYPs, kinases, phosphatases, proteases, HDACs) used recombinant protein and specific substrates (fluorescence mostly, some colorimetric and radioactive) and inhibitors, followed by a biochemical separation of substrate and product. All assays for the biochemical HTS were initially run in duplicate at a single concentration (10 uM for CYP450 assays and 25 uM for all others). […] Each assay was run with positive and negative controls, and concurrent controls on every plate. The follow-up (secondary) screen tested active chemical-pairs in concentration series, as well as a few additional assays not tested in the primary screen, some selected negative inactives, and several cases re-run in the concentration series for confirmatory purposes.

How did the outcome turn out when `CC(C=O)Cc1ccc2c(c1)OCO2` (stereo not drawn) was run?
Its outcome is “inactive”.

Which AC50 does the source give for `N#Cc1ccc(N(CC(N)=O)CC(F)(F)F)cc1C(F)(F)F` here?
The AC50 was inconclusive: 25 µM.

With `COc1cc(OC)nc(Sc2cccc(Cl)c2C(=O)O)n1` as the compound, how does the AC50 read?
The AC50 was inconclusive: 25 µM.

For `C[C@@H]1C[C@@H]([C@H](O)CC2CC(=O)NC(=O)C2)C(=O)[C@@H](C)C1`, which AC50 is on record?
The AC50 was inconclusive: 0.333 µM.

With `CCOP(=S)(OCC)Oc1ccc([N+](=O)[O-])cc1` as the compound, how does the outcome read?
The outcome was “inactive”.

`COc1cc(OC)nc(NC(=O)NS(=O)(=O)c2cc(NC=O)ccc2C(=O)N(C)C)n1` was tested. Which AC50 did it give?
The AC50 was inconclusive: 25 µM.

How did the outcome turn out when `CNC(=O)CSP(=S)(OC)OC` was run?
The outcome was “inactive”.

How did the AC50 turn out when `O=C(O)c1nc(Cl)ccc1Cl` was run?
Its AC50 is inconclusive: 25 µM.

With `COC(=O)NS(=O)(=O)c1ccc(N)cc1` as the compound, how does the outcome read?
The outcome was “inactive”.

With `CCS(=O)(=O)c1cccnc1S(=O)(=O)NC(=O)Nc1nc(OC)cc(OC)n1` as the compound, how does the AC50 read?
Its AC50 is inconclusive: 6.98 µM.

For `c1ccc(-c2ccccc2)cc1`, which AC50 is on record?
Its AC50 is inconclusive: 25 µM.

For `Cc1cc(C(C)(C)c2ccc(O)c(C)c2)ccc1O`, which outcome is on record?
Its outcome is “inactive”.

`C#CCC1=C(C)C(OC(=O)C2C(C=C(C)C)C2(C)C)CC1=O` (stereo not drawn) was tested. Which AC50 did it give?
The AC50 was inconclusive: 25 µM.
